Measurements reported in publication PMC2694798.
Results are given in words; binding and its absence hold for the method and conditions named. For some assays here: Binding seen in cells or lysates may run through a third protein. Some results given as binding are weak or reduced against the parent protein; the word gives no strength. Each block holds one molecule with its values, some of them ahead of it.

Chains of the proteins cited; added tags and fusions are not shown. Residues count along the entry.
UniProt Q62765, residues 46-843: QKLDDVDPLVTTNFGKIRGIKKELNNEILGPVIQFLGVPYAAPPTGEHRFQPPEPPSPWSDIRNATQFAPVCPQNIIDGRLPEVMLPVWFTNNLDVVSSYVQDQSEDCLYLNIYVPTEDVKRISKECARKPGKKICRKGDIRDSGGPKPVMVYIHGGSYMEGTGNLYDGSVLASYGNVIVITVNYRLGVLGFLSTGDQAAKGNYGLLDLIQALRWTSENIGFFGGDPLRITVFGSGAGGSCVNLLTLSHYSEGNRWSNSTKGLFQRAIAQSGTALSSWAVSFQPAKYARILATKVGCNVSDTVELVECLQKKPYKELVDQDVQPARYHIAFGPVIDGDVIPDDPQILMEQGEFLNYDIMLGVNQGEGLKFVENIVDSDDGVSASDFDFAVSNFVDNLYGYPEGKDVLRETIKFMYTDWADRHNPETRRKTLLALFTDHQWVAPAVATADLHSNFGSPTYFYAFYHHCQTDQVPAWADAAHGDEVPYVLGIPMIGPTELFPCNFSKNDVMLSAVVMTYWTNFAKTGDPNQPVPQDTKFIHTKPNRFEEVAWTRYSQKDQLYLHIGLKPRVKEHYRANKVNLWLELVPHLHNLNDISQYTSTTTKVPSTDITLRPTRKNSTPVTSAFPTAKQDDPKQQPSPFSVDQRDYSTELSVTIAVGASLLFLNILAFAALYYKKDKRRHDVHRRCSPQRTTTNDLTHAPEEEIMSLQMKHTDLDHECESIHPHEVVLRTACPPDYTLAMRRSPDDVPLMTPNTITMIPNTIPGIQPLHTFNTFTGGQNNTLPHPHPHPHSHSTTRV
UniProt P19491, residues 22-883: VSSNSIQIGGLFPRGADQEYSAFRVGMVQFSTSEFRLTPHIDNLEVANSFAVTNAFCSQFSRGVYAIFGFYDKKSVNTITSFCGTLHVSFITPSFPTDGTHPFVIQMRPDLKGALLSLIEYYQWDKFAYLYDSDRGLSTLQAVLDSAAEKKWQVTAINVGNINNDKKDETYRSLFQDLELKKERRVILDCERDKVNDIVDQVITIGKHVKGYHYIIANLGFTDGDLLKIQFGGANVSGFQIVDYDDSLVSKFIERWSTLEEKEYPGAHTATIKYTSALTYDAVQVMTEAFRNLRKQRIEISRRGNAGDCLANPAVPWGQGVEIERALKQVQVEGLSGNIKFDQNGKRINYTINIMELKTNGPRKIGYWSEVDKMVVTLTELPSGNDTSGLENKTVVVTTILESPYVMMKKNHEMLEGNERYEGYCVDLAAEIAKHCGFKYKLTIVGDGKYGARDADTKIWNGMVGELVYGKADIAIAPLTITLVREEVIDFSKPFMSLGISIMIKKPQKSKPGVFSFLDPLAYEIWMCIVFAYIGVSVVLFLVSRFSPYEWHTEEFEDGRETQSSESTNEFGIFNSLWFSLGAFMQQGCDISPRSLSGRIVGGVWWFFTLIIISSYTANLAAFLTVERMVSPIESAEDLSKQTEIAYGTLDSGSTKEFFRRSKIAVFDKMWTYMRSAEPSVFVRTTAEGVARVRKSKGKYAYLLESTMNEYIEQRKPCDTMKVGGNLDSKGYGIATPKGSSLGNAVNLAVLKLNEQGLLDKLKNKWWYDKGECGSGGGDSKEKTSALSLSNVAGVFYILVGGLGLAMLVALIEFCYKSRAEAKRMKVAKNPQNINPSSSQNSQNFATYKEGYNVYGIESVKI

Experiments:
[1] = target: neuroligin1 (rat (endogenous in rat cortex and in cultured rat cortical neurons)) (UniProt Q62765); test: co-IP; P4 rat cortex membranes solubilised with 1% deoxycholate, dialysed against 50 mM Tris-HCl pH 7.5, 0.1% Triton X-100; 1 mg protein with Nlg or NR2B antibody overnight, Protein G sepharose; western blot
[2] = target: NMDAR subunit 2B (rat (endogenous in rat cortex)) (UniProt Q00960); test: as above
[3] = target: NMDAR subunit 1 (rat (endogenous in rat cortex)) (UniProt P35439); test: condition: only after incubation of the beads with carbonate buffer pH11 for 30 minutes; immuno-isolation of membrane organelles; NR1 immuno-isolate on anti-NR1 Dynabeads from P2-3 rat cortex, beads incubated with carbonate buffer pH11 for 30 minutes; western blot, compared with pH7.4
[4] = target: NMDAR subunit 1 (rat (endogenous in rat cortex)) (UniProt P35439); test: immuno-isolation of membrane organelles; anti-NR1 antibody on Dynabeads with 250 μg of P2-3 rat cortex light membrane supernatant, 5% bovine serum albumin, overnight at 4°C; washed with homogenization buffer without detergent (intact membranes); western blot, percent of total input after subtraction of the control

binding [1]: binds
Molecule: NMDAR subunit 1 (from UniProt P35439 19-938) (receptor)

binding [2]: no binding
binding [1]: no binding
Molecule: AMPA receptor (AMPAR) subunit GluR2 (from UniProt P19491 22-883)

binding [4]: no binding
B1: vesicular glutamate transporter 1 (protein, UniProt Q62634 1-560)
chain: MEFRQEEFRKLAGRALGRLHRLLEKRQEGAETLELSADGRPVTTHTRDPPVVDCTCFGLPRRYIIAIMSGLGFCISFGIRCNLGVAIVSMVNNSTTHRGGHVVVQKAQFNWDPETVGLIHGSFFWGYIVTQIPGGFICQKFAANRVFGFAIVATSTLNMLIPSAARVHYGCVIFVRILQGLVEGVTYPACHGIWSKWAPPLERSRLATTAFCGSYAGAVVAMPLAGVLVQYSGWSSVFYVYGSFGIFWYLFWLLVSYESPALHPSISEEERKYIEDAIGESAKLMNPVTKFNTPWRRFFTSMPVYAIIVANFCRSWTFYLLLISQPAYFEEVFGFEISKVGLVSALPHLVMTIIVPIGGQIADFLRSRHIMSTTNVRKLMNCGGFGMEATLLLVVGYSHSKGVAISFLVLAVGFSGFAISGFNVNHLDIAPRYASILMGISNGVGTLSGMVCPIIVGAMTKHKTREEWQYVFLIASLVHYGGVIFYGVFASGEKQPWAEPEEMSEEKCGFVGHDQLAGSDESEMEDEVEPPGAPPAPPPSYGATHSTVQPPRPPPPVRDY

Second part, the molecule before the results:

Molecule: synapsin1 (from UniProt P09951 1-704)
binding [2]: no binding
binding [1]: no binding

Molecule: neuroligin1 (from UniProt Q62765 46-843)
binding [3]: no binding
binding [2]: binds
